# Primary screen of a compound library

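Growth of Mycobacterium tuberculosis over 4 days (cholesterol / DPPC medium with tyloxapol); the read-out is not stated. Concentration: 500 µM. Higher reads as more growth inhibition (inferred: compounds with an IC50 in retests scored well above the rest). Size under these conditions: about 18,000 compounds, about 900 of them at 50% or above in at least one test.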

Values are the deposited “Percent Effect”, in %. The record does not define 0% and 100%; most values in the screen are far below 50% and negative numbers occur (in some assays of this library far below -100). This is an unselected part of the compounds tested.

Cc1ncsc1CCN(C)C(=O)[C@H]1CC[C@@H](O)CC1 read 2.414%.
CC(OC(=O)c1ccccc1NCCO)C(N)=O (stereo not drawn) read 11.93%.
CN(CCOCc1ccccc1)C(=O)c1cc[nH]n1 read 11.9%.
CC(CO)OCCc1ccccc1 (stereo not drawn) read 11.4%.
CCc1ccc(CNc2ccc(CO)cn2)cc1 read 89.12%.
CN(C)c1ccc(C(=O)NCCc2c[nH]cn2)cn1 read -2.757%.
CN(CCCOCc1ccccc1)C(N)=O read 16.6%.
Cc1ccc2c(c1)C(N)C(=O)N2C (stereo not drawn) read -12.2%.
NC(=O)C1=NOC(CNCc2ccccc2Cl)C1 (stereo not drawn) read -13.03%.
Cc1nc2ccccc2c(=O)n1-c1ccccn1 read 12.17%.
CC(C)CNC(=O)C1CCCO1 (stereo not drawn) read 26.85%.
CCC(NC(=O)NCC(=O)N1CCCC1)c1nccs1 (stereo not drawn) read -25.09%.
NCCCc1nc(-c2ccc(F)cc2)no1 read 67.63%.
CCn1cc(C(=O)Nc2nnc(C)s2)cn1 read -7.23%.
Cn1cncc1C(N)CO (stereo not drawn) read 3.326%.
NC[C@@H]1Cc2ccccc2CO1 read -5.333%.
Nc1ccc(N2CCC(CO)CC2)cn1 read -7.689%.
Cc1ccc(CN)c(OCC2CCCO2)c1 (stereo not drawn) read -8.107%.
Cc1ccc(N2CCCC(N)C2=O)cc1 (stereo not drawn) read -4.633%.
CCN(CCC#N)C(=O)CSc1ccoc1C read -5.633%.
CCN1CC2(CCN(Cc3ncc[nH]3)CC2)OC1=O read -6.598%.
CNC1(C(=O)OC)CCCCC1 read 5.728%.
NC1CCCCC1=O (stereo not drawn) read 1.775%.
CCC1CN(C)c2ccccc2CN1CCOCCO (stereo not drawn) read -1.679%.
CCCS(=O)(=O)N[C@@H]1CN(C)C[C@H]1CN(C)C read -8.501%.
CCOCCS(=O)(=O)N1CCN(C)c2ccncc21 read 13.09%.
c1cc(-c2nnco2)ccn1 read 11.78%.
NCc1ccc2c(c1)COC2 read 1.882%.
CC(CO)SCc1cc(=O)n2ccccc2n1 (stereo not drawn) read -7.51%.
CCN(CCC(=O)OC)Cc1cccc2c1OCO2 read -14.39%.
CC(C)OC(=O)CCN read -0.9369%.
c1nnc(C2CC2)n1C1CCNCC1 read -2.6%.
CCN(CC)c1ccc(CN)cc1 read -12.16%.
CN(C)[C@H]1CCN(C(=O)CCc2ccncc2)C1 read -2.836%.
CN1CCC(NC(=O)c2n[nH]c3ccccc23)C1 (stereo not drawn) read 10.92%.
CCCN(CCC(=O)N(C)C)Cc1nccn1C read -19.25%.
O=C1NCCN1CCNc1cc(C2CC(O)C2)ncn1 (stereo not drawn) read -7.468%.
CS(=O)(=O)N1CCC(c2nc(-c3cccs3)no2)CC1 read 4.603%.
CCOCCN(c1ccccc1F)S(C)(=O)=O read -6.464%.
Cc1cc(C(=O)N2CCSCC2c2cnn(C)c2)no1 (stereo not drawn) read -24.29%.
CCn1nc(C)cc1C(=O)N1CCNC(=O)C1(C)C read -6.114%.
COc1ncccc1NC(=O)NC1CCCCNC1=O (stereo not drawn) read -5.08%.
CCN1CCC(CCNC(=O)c2ccccn2)CC1 read 2.46%.
NCc1ccccc1CN1CCCC1=O read 8.386%.
CNC(=O)CCSc1ccc2c(c1)OCCO2 read 72.06%.
COCC(=O)N(C)Cc1cc(Br)cs1 read 32.27%.
COc1cccc(OCC(O)CN2CCN(C)CC2)c1 (stereo not drawn) read -8.789%.
CC(CNC(=O)c1cncc(Br)c1)N1CCCC1 (stereo not drawn) read -7.623%.
OCCOc1ccccc1CN1C[C@H]2CC[C@@H](C1)[C@H]2O read 8.447%.
COc1ccnc(CN)c1 read -0.465%.
O=C(Nc1ccccc1N1CCCC1)C1CCOC1 (stereo not drawn) read 18.76%.
O=C(NCc1nccs1)c1csc(NC2CC2)n1 read 23.69%.

For reference, 5 entries once more:

compound,effect
CC(CO)OCCc1ccccc1 (stereo not drawn),11.4
CCN(CC)c1ccc(CN)cc1,-12.16
Cn1cncc1C(N)CO (stereo not drawn),3.326
CNC1(C(=O)OC)CCCCC1,5.728
CN(CCCOCc1ccccc1)C(N)=O,16.6

From ChEMBL document CHEMBL3988442, “University of Dundee, Small-Polar-MMV Screening Library” (2021).